Source: publication PMC5741900
Results are given in words; binding and its absence hold for the method and conditions named. In cells and extracts the contact can be indirect. Some results given as binding are weak or reduced against the parent protein; the word gives no strength. For some assays here: Where a sequence is shown, tags or fusion partners need not be part of it.

The chains behind the UniProt entries cited, without tags or fusion partners.
UniProt Q9UER7: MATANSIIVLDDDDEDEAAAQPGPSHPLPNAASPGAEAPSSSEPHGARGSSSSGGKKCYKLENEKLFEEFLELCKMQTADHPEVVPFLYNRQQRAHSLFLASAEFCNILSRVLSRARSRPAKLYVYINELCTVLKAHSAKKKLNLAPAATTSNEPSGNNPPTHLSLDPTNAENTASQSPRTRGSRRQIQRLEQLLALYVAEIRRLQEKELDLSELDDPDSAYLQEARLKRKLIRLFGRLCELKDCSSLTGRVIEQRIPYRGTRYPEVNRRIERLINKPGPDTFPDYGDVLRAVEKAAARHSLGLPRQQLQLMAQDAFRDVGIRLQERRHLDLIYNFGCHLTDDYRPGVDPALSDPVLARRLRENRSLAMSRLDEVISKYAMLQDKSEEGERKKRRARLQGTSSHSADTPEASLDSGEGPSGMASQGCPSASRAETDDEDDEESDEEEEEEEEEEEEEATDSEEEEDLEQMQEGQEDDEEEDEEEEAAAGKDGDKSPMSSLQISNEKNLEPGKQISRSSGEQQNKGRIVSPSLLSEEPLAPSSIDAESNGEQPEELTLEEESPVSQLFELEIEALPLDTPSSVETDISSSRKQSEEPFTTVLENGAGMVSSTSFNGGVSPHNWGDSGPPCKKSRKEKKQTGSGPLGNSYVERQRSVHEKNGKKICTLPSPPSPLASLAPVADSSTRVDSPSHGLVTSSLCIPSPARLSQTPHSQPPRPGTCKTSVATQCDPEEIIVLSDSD

Tests used:
FLAG-HA-CENP-B = biological target: T1, FLAG-HA-CENP-B (UniProt P07199); experiment: co-IP; anti-FLAG-M2 magnetic beads on the chromatin fraction of HEp2 cells stably expressing FLAG-HA-CENP-B; blot with Daxx and HA antibodies; also after scrambled, SUMO-1 or SUMO-2 siRNA and MG132 (10 µM, 4 h), densitometry relative to control siRNA
T1 sequence: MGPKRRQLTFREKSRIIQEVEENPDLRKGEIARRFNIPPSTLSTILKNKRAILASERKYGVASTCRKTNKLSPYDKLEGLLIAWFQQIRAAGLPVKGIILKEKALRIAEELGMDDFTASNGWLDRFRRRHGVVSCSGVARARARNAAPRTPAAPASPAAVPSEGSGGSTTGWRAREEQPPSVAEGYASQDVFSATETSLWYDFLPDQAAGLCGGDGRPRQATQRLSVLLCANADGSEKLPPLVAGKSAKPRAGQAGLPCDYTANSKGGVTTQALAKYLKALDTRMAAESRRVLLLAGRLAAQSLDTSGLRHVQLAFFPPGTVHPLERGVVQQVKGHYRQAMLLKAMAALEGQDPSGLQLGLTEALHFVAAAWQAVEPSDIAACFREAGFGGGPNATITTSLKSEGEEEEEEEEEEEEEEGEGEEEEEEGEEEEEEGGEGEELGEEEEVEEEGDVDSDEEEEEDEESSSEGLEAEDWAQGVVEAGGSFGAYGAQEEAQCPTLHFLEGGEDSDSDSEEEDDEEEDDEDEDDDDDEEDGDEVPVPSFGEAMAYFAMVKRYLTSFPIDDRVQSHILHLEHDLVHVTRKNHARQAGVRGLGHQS

FLAG-HA-Daxx = FLAG-HA-Daxx (UniProt Q9UER7); experiment: co-IP; FLAG magnetic beads on the chromatin fraction (400 mM NaCl extract) of HEp2 cells stably expressing FLAG-HA-Daxx or FLAG-HA-DaxxΔSIM; washed six times with high salt buffer, eluted with FLAG peptide; blot with CREST and CENP-B antibodies

| Molecule | binding (FLAG-HA-CENP-B) | binding (FLAG-HA-Daxx) |
| --- | --- | --- |
| Daxx, endogenous (from UniProt Q9UER7 1-740) | binds |  |
| CENP-B (centromere protein B), endogenous (protein, UniProt P07199 1-599) MGPKRRQLTFREKSRIIQEVEENPDLRKGEIARRFNIPPSTLSTILKNKRAILASERKYGVASTCRKTNKLSPYDKLEGLLIAWFQQIRAAGLPVKGIILKEKALRIAEELGMDDFTASNGWLDRFRRRHGVVSCSGVARARARNAAPRTPAAPASPAAVPSEGSGGSTTGWRAREEQPPSVAEGYASQDVFSATETSLWYDFLPDQAAGLCGGDGRPRQATQRLSVLLCANADGSEKLPPLVAGKSAKPRAGQAGLPCDYTANSKGGVTTQALAKYLKALDTRMAAESRRVLLLAGRLAAQSLDTSGLRHVQLAFFPPGTVHPLERGVVQQVKGHYRQAMLLKAMAALEGQDPSGLQLGLTEALHFVAAAWQAVEPSDIAACFREAGFGGGPNATITTSLKSEGEEEEEEEEEEEEEEGEGEEEEEEGEEEEEEGGEGEELGEEEEVEEEGDVDSDEEEEEDEESSSEGLEAEDWAQGVVEAGGSFGAYGAQEEAQCPTLHFLEGGEDSDSDSEEEDDEEEDDEDEDDDDDEEDGDEVPVPSFGEAMAYFAMVKRYLTSFPIDDRVQSHILHLEHDLVHVTRKNHARQAGVRGLGHQS |  | binds |
